We go through four sequences from patent publication US20240301431.

The exact form of at least one protein or probe is not confirmed. Negatives hold for the conditions tested. The comparison behind a weaker result is the experiment's own reference, which may not be listed here.

This series concerns TNF-α. Briefly: binding assay. The note with it: 3'-thiol, PBS pH 8.2, 5 mM Mg2+, 37 C, purified recombinant protein, single-stranded DNA.

For “ACCTGGGGGAGTATTGCGGAGGAAGGTTTTTTTTGGTGGATGGCGCAGTCGGCGACAATTTTTTT [Au-Apt (TNF-α/ATP fused aptamer on gold nanoparticle)]”, the binding result (conjugated to ~15 nm gold nanoparticle (53 aptamers per particle), TNF-α capture by centrifugation, supernatant enzyme immunoassay, 4 h, aptamer:TNF-α 10000:1, not reduced by simple mixing with pPBA) is on record as “binds”. Regarding “ACCTGGGGGAGTATTGCGGAGGAAGGTTTTTTTTGACTTGGTGCAGACGATGGCAGGGTTTTTTT [Au-Ctrl-ATP-pPBA]”, the binding result (conjugated to gold nanoparticle, coated with poly(phenylboronic acid) via ATP, no TNF-α capture with or without 100 uM H2O2) is “no binding”. Regarding “ACCTGGGGGAGTATTGCGGAGGAAGGTTTTTTTTGACTTGGTGCAGACGATGGCAGGGTTTTTTT”, the binding result (conjugated to ~15 nm gold nanoparticle (44 aptamers per particle), TNF-α capture by centrifugation, supernatant enzyme immunoassay, no capture with or without H2O2) is on record as “no binding”. In the case of “ACCTGGGGGAGTATTGCGGAGGAAGGTTTTTTTTGGTGGATGGCGCAGTCGGCGACAATTTTTTT [Au-Apt-ATP-pPBA]”, the binding result (conjugated to gold nanoparticle, coated with poly(phenylboronic acid) via ATP, TNF-α capture remarkably reduced by pPBA coating, restored with 100 uM H2O2) is reported as “binds more weakly”.
